Experimental data: article PMC8436130
No constants are given. Whether binding was seen depends on the method and setting. Binding seen in cells or lysates may run through a third protein. These calls come from enrichment with a bait or labelling near it, and not all partners need be listed.

Chains of the proteins cited; added tags and fusions are not shown.
UniProt Q86WV6: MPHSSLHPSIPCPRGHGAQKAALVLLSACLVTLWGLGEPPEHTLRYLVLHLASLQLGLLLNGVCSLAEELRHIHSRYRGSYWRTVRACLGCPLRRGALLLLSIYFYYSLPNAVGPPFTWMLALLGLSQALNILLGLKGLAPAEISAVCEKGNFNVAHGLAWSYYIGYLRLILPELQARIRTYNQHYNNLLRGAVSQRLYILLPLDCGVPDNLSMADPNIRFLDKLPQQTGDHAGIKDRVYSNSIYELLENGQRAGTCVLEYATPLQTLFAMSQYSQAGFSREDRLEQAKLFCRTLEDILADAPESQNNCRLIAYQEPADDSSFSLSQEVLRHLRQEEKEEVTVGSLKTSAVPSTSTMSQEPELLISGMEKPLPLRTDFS

Molecular target: STimulator of INterferon Genes (STING) fused to GFP (UniProt Q86WV6)
Test: affinity purification with mass spectrometry; nuclear envelopes isolated from HEK293T cells expressing STING-GFP, reversibly cross-linked with ortho-phenanthroline copper, resuspended in RIPA and sonicated, immunoprecipitated with GFP antibodies on Protein A-sepharose, released with 50 mM DTT, tandem mass spectrometry; mock-transfected cells as control

Binder	binding
RSF1 (protein, UniProt Q96T23 1-1441) MATAAAAAAVMAPPGCPGSCPNFAVVCSFLERYGPLLDLPELPFPELERVLQAPPPDVGNGEVPKELVELHLKLMRKIGKSVTADRWEKYLIKICQEFNSTWAWEMEKKGYLEMSVECKLALLKYLCECQFDDNLKFKNIINEEDADTMRLQPIGRDKDGLMYWYQLDQDHNVRMYIEEQDDQDGSSWKCIVRNRNELAETLALLKAQIDPVLLKNSSQQDNSSRESPSLEDEETKKEEETPKQEEQKESEKMKSEEQPMDLENRSTANVLEETTVKKEKEDEKELVKLPVIVKLEKPLPENEEKKIIKEESDSFKENVKPIKVEVKECRADPKDTKSSMEKPVAQEPERIEFGGNIKSSHEITEKSTEETEKLKNDQQAKIPLKKREIKLSDDFDSPVKGPLCKSVTPTKEFLKDEIKQEEETCKRISTITALGHEGKQLVNGEVSDERVAPNFKTEPIETKFYETKEESYSPSKDRNIITEGNGTESLNSVITSMKTGELEKETAPLRKDADSSISVLEIHSQKAQIEEPDPPEMETSLDSSEMAKDLSSKTALSSTESCTMKGEEKSPKTKKDKRPPILECLEKLEKSKKTFLDKDAQRLSPIPEEVPKSTLESEKPGSPEAAETSPPSNIIDHCEKLASEKEVVECQSTSTVGGQSVKKVDLETLKEDSEFTKVEMDNLDNAQTSGIEEPSETKGSMQKSKFKYKLVPEEETTASENTEITSERQKEGIKLTIRISSRKKKPDSPPKVLEPENKQEKTEKEEEKTNVGRTLRRSPRISRPTAKVAEIRDQKADKKRGEGEDEVEEESTALQKTDKKEILKKSEKDTNSKVSKVKPKGKVRWTGSRTRGRWKYSSNDESEGSGSEKSSAASEEEEEKESEEAILADDDEPCKKCGLPNHPELILLCDSCDSGYHTACLRPPLMIIPDGEWFCPPCQHKLLCEKLEEQLQDLDVALKKKERAERRKERLVYVGISIENIIPPQEPDFSEDQEEKKKDSKKSKANLLERRSTRTRKCISYRFDEFDEAIDEAIEDDIKEADGGGVGRGKDISTITGHRGKDISTILDEERKENKRPQRAAAARRKKRRRLNDLDSDSNLDEEESEDEFKISDGSQDEFVVSDENPDESEEDPPSNDDSDTDFCSRRLRRHPSRPMRQSRRLRRKTPKKKYSDDDEEEESEENSRDSESDFSDDFSDDFVETRRRRSRRNQKRQINYKEDSESDGSQKSLRRGKEIRRVHKRRLSSSESEESYLSKNSEDDELAKESKRSVRKRGRSTDEYSEADEEEEEEEGKPSRKRLHRIETDEEESCDNAHGDANQPARDSQPRVLPSEQESTKKPYRIESDEEEDFENVGKVGSPLDYSLVDLPSTNGQSPGKAIENLIGKPTEKSQTPKDNSTASASLASNGTSGGQEAGAPEEEEDELLRVTDLVDYVCNSEQL	binds
TMPOβ (protein, UniProt P42167 1-454) MPEFLEDPSVLTKDKLKSELVANNVTLPAGEQRKDVYVQLYLQHLTARNRPPLPAGTNSKGPPDFSSDEEREPTPVLGSGAAAAGRSRAAVGRKATKKTDKPRQEDKDDLDVTELTNEDLLDQLVKYGVNPGPIVGTTRKLYEKKLLKLREQGTESRSSTPLPTISSSAENTRQNGSNDSDRYSDNEEDSKIELKLEKREPLKGRAKTPVTLKQRRVEHNQSYSQAGITETEWTSGSSKGGPLQALTRESTRGSRRTPRKRVETSEHFRIDGPVISESTPIAETIMASSNESLVVNRVTGNFKHASPILPITEFSDIPRRAPKKPLTRAEVGEKTEERRVERDILKEMFPYEASTPTGISASCRRPIKGAAGRPLELSDFRMEESFSSKYVPKYVPLADVKSEKTKKGRSIPVWIKILLFVVVAVFLFLVYQAMETNQVNPFSNFLHVDPRKSN	binds
TMPOα (protein, UniProt P42166 1-694) MPEFLEDPSVLTKDKLKSELVANNVTLPAGEQRKDVYVQLYLQHLTARNRPPLPAGTNSKGPPDFSSDEEREPTPVLGSGAAAAGRSRAAVGRKATKKTDKPRQEDKDDLDVTELTNEDLLDQLVKYGVNPGPIVGTTRKLYEKKLLKLREQGTESRSSTPLPTISSSAENTRQNGSNDSDRYSDNEEGKKKEHKKVKSTRDIVPFSELGTTPSGGGFFQGISFPEISTRPPLGSTELQAAKKVHTSKGDLPREPLVATNLPGRGQLQKLASERNLFISCKSSHDRCLEKSSSSSSQPEHSAMLVSTAASPSLIKETTTGYYKDIVENICGREKSGIQPLCPERSHISDQSPLSSKRKALEESESSQLISPPLAQAIRDYVNSLLVQGGVGSLPGTSNSMPPLDVENIQKRIDQSKFQETEFLSPPRKVPRLSEKSVEERDSGSFVAFQNIPGSELMSSFAKTVVSHSLTTLGLEVAKQSQHDKIDASELSFPFHESILKVIEEEWQQVDRQLPSLACKYPVSSREATQILSVPKVDDEILGFISEATPLGGIQAASTESCNQQLDLALCRAYEAAASALQIATHTAFVAKAMQADISQAAQILSSDPSRTHQALGILSKTYDAASYICEAAFDEVKMAAHTMGNATVGRRYLWLKDCKINLASKNKLASTPFKGGTLFGGEVCKVIKKRGNKH	binds
RBM28 (protein, UniProt Q9NW13 1-759) MAGLTLFVGRLPPSARSEQLEELFSQVGPVKQCFVVTEKGSKACRGFGYVTFSMLEDVQRALKEITTFEGCKINVTVAKKKLRNKTKEKGKNENSECPKKEPKAKKAKVADKKARLIIRNLSFKCSEDDLKTVFAQFGAVLEVNIPRKPDGKMRGFGFVQFKNLLEAGKALKGMNMKEIKGRTVAVDWAVAKDKYKDTQSVSAIGEEKSHESKHQESVKKKGREEEDMEEEENDDDDDDDDEEDGVFDDEDEEEENIESKVTKPVQIQKRAVKRPAPAKSSDHSEEDSDLEESDSIDDGEELAQSDTSTEEQEDKAVQVSNKKKRKLPSDVNEGKTVFIRNLSFDSEEEELGELLQQFGELKYVRIVLHPDTEHSKGCAFAQFMTQEAAQKCLLAASPENEAGGLKLDGRQLKVDLAVTRDEAAKLQTTKVKKPTGTRNLYLAREGLIRAGTKAAEGVSAADMAKRERFELLKHQKLKDQNIFVSRTRLCLHNLPKAVDDKQLRKLLLSATSGEKGVRIKECRVMRDLKGVHGNMKGQSLGYAFAEFQEHEHALKALRLINNNPEIFGPLKRPIVEFSLEDRRKLKMKELRIQRSLQKMRSKPATGEPQKGQPEPAKDQQQKAAQHHTEEQSKVPPEQKRKAGSTSWTGFQTKAEVEQVELPDGKKRRKVLALPSHRGPKIRLRDKGKVKPVHPKKPKPQINQWKQEKQQLSSEQVSRKKAKGNKTETRFNQLVEQYKQKLLGPSKGAPLAKRSKWFDS	binds
EBNA1BP2 (protein, UniProt Q99848 1-306) MDTPPLSDSESESDESLVTDRELQDAFSRGLLKPGLNVVLEGPKKAVNDVNGLKQCLAEFKRDLEWVERLDVTLGPVPEIGGSEAPAPQNKDQKAVDPEDDFQREMSFYRQAQAAVLAVLPRLHQLKVPTKRPTDYFAEMAKSDLQMQKIRQKLQTKQAAMERSEKAKQLRALRKYGKKVQTEVLQKRQQEKAHMMNAIKKYQKGFSDKLDFLEGDQKPLAQRKKAGAKGQQMRKGPSAKRRYKNQKFGFGGKKKGSKWNTRESYDDVSSFRAKTAHGRGLKRPGKKGSNKRPGKRTREKMKNRTH	binds
RRP1B (protein, UniProt Q14684 1-758) MAPAMQPAEIQFAQRLASSEKGIRDRAVKKLRQYISVKTQRETGGFSQEELLKIWKGLFYCMWVQDEPLLQEELANTIAQLVHAVNNSAAQHLFIQTFWQTMNREWKGIDRLRLDKYYMLIRLVLRQSFEVLKRNGWEESRIKVFLDVLMKEVLCPESQSPNGVRFHFIDIYLDELSKVGGKELLADQNLKFIDPFCKIAAKTKDHTLVQTIARGVFEAIVDQSPFVPEETMEEQKTKVGDGDLSAEEIPENEVSLRRAVSKKKTALGKNHSRKDGLSDERGRDDCGTFEDTGPLLQFDYKAVADRLLEMTSRKNTPHFNRKRLSKLIKKFQDLSEGSSISQLSFAEDISADEDDQILSQGKHKKKGNKLLEKTNLEKEKGSRVFCVEEEDSESSLQKRRRKKKKKHHLQPENPGPGGAAPSLEQNRGREPEASGLKALKARVAEPGAEATSSTGEESGSEHPPAVPMHNKRKRPRKKSPRAHREMLESAVLPPEDMSQSGPSGSHPQGPRGSPTGGAQLLKRKRKLGVVPVNGSGLSTPAWPPLQQEGPPTGPAEGANSHTTLPQRRRLQKKKAGPGSLELCGLPSQKTASLKKRKKMRVMSNLVEHNGVLESEAGQPQALGSSGTCSSLKKQKLRAESDFVKFDTPFLPKPLFFRRAKSSTATHPPGPAVQLNKTPSSSKKVTFGLNRNMTAEFKKTDKSILVSPTGPSRVAFDPEQKPLHGVLKTPTSSPASSPLVAKKPLTTTPRRRPRAMDFF	binds
HNRNPR (protein, UniProt O43390 1-633) MANQVNGNAVQLKEEEEPMDTSSVTHTEHYKTLIEAGLPQKVAERLDEIFQTGLVAYVDLDERAIDALREFNEEGALSVLQQFKESDLSHVQNKSAFLCGVMKTYRQREKQGSKVQESTKGPDEAKIKALLERTGYTLDVTTGQRKYGGPPPDSVYSGVQPGIGTEVFVGKIPRDLYEDELVPLFEKAGPIWDLRLMMDPLSGQNRGYAFITFCGKEAAQEAVKLCDSYEIRPGKHLGVCISVANNRLFVGSIPKNKTKENILEEFSKVTEGLVDVILYHQPDDKKKNRGFCFLEYEDHKSAAQARRRLMSGKVKVWGNVVTVEWADPVEEPDPEVMAKVKVLFVRNLATTVTEEILEKSFSEFGKLERVKKLKDYAFVHFEDRGAAVKAMDEMNGKEIEGEEIEIVLAKPPDKKRKERQAARQASRSTAYEDYYYHPPPRMPPPIRGRGRGGGRGGYGYPPDYYGYEDYYDDYYGYDYHDYRGGYEDPYYGYDDGYAVRGRGGGRGGRGAPPPPRGRGAPPPRGRAGYSQRGAPLGPPRGSRGGRGGPAQQQRGRGSRGSRGNRGGNVGGKRKADGYNQPDSKRRQTNNQQNWGSQPIAQQPLQQGGDYSGNYGYNNDNQEFYQDTYGQQWK	binds
HNRNPL (protein, UniProt P14866 1-589) MSRRLLPRAEKRRRRLEQRQQPDEQRRRSGAMVKMAAAGGGGGGGRYYGGGSEGGRAPKRLKTDNAGDQHGGGGGGGGGAGAAGGGGGGENYDDPHKTPASPVVHIRGLIDGVVEADLVEALQEFGPISYVVVMPKKRQALVEFEDVLGACNAVNYAADNQIYIAGHPAFVNYSTSQKISRPGDSDDSRSVNSVLLFTILNPIYSITTDVLYTICNPCGPVQRIVIFRKNGVQAMVEFDSVQSAQRAKASLNGADIYSGCCTLKIEYAKPTRLNVFKNDQDTWDYTNPNLSGQGDPGSNPNKRQRQPPLLGDHPAEYGGPHGGYHSHYHDEGYGPPPPHYEGRRMGPPVGGHRRGPSRYGPQYGHPPPPPPPPEYGPHADSPVLMVYGLDQSKMNCDRVFNVFCLYGNVEKVKFMKSKPGAAMVEMADGYAVDRAITHLNNNFMFGQKLNVCVSKQPAIMPGQSYGLEDGSCSYKDFSESRNNRFSTPEQAAKNRIQHPSNVLHFFNAPLEVTEENFFEICDELGVKRPSSVKVFSGKSERSSSGLLEWESKSDALETLGFLNHYQMKNPNGPYPYTLKLCFSTAQHAS	binds
